{"source": "patent US8709303B2", "about": "“Dielectric insulation medium” (ABB Research Ltd., priority 2010, dated 2014)", "key": {"[1]": {"assay": "global warming potential (GWP) over 100 years"}, "[2]": {"assay": "ozone depletion potential (ODP)"}, "[3]": {"assay": "dielectric strength / electric breakdown field strength of the insulation medium as a function of gas pressure", "type": "physicochemical"}}}
{"molecule": "FC(F)(F)COC(F)(F)F", "note": "[2,2,2-trifluoroethyl-trifluoromethyl ether (CF3—O—CH2CF3)]", "values": [{"measurement": "GWP", "setting": "[1]", "result": 487}, {"measurement": "ODP", "setting": "[2]", "result": 0}]}
{"molecule": "FS(F)(F)(F)(F)F", "note": "[SF6, sulphur hexafluoride SF6, reference compound]", "values": [{"measurement": "dielectric strength", "setting": "[3]; pure gas at the same pressure (1 bar)", "result": 84, "unit": "kV/cm"}]}
{"molecule": "COC(F)(F)C(F)(F)F", "note": "[pentafluoro-ethyl-methyl ether, pentafluoro-ethyl-methyl ether (CH3—O—CF2CF3)]", "values": [{"measurement": "GWP", "setting": "[1]", "result": 697}, {"measurement": "dielectric strength", "setting": "[3]; 1 bar total pressure, small amount of admixture gas added (higher boiling point, dielectric strength higher than SF6)", "result": 68, "unit": "kV/cm"}, {"measurement": "dielectric strength relative to air", "setting": "[3]; at 1 bar", "result": "about 2.4 times"}, {"measurement": "ODP", "setting": "[2]", "result": 0}]}
